Results as given in article PMC10625159.
Where two headings read alike, the source gives them in different places. These are yes or no findings as the source states them, for the method shown. Binding seen in cells or lysates may run through a third protein. Some binding calls cover weakened binding; strength is not graded here.

Sequences of proteins named here, by UniProt entry; tags and fusion partners are left off.
UniProt P62627: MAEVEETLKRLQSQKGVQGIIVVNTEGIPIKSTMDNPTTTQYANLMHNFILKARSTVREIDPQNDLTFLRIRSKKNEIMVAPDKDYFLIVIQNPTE
UniProt Q9JHU4: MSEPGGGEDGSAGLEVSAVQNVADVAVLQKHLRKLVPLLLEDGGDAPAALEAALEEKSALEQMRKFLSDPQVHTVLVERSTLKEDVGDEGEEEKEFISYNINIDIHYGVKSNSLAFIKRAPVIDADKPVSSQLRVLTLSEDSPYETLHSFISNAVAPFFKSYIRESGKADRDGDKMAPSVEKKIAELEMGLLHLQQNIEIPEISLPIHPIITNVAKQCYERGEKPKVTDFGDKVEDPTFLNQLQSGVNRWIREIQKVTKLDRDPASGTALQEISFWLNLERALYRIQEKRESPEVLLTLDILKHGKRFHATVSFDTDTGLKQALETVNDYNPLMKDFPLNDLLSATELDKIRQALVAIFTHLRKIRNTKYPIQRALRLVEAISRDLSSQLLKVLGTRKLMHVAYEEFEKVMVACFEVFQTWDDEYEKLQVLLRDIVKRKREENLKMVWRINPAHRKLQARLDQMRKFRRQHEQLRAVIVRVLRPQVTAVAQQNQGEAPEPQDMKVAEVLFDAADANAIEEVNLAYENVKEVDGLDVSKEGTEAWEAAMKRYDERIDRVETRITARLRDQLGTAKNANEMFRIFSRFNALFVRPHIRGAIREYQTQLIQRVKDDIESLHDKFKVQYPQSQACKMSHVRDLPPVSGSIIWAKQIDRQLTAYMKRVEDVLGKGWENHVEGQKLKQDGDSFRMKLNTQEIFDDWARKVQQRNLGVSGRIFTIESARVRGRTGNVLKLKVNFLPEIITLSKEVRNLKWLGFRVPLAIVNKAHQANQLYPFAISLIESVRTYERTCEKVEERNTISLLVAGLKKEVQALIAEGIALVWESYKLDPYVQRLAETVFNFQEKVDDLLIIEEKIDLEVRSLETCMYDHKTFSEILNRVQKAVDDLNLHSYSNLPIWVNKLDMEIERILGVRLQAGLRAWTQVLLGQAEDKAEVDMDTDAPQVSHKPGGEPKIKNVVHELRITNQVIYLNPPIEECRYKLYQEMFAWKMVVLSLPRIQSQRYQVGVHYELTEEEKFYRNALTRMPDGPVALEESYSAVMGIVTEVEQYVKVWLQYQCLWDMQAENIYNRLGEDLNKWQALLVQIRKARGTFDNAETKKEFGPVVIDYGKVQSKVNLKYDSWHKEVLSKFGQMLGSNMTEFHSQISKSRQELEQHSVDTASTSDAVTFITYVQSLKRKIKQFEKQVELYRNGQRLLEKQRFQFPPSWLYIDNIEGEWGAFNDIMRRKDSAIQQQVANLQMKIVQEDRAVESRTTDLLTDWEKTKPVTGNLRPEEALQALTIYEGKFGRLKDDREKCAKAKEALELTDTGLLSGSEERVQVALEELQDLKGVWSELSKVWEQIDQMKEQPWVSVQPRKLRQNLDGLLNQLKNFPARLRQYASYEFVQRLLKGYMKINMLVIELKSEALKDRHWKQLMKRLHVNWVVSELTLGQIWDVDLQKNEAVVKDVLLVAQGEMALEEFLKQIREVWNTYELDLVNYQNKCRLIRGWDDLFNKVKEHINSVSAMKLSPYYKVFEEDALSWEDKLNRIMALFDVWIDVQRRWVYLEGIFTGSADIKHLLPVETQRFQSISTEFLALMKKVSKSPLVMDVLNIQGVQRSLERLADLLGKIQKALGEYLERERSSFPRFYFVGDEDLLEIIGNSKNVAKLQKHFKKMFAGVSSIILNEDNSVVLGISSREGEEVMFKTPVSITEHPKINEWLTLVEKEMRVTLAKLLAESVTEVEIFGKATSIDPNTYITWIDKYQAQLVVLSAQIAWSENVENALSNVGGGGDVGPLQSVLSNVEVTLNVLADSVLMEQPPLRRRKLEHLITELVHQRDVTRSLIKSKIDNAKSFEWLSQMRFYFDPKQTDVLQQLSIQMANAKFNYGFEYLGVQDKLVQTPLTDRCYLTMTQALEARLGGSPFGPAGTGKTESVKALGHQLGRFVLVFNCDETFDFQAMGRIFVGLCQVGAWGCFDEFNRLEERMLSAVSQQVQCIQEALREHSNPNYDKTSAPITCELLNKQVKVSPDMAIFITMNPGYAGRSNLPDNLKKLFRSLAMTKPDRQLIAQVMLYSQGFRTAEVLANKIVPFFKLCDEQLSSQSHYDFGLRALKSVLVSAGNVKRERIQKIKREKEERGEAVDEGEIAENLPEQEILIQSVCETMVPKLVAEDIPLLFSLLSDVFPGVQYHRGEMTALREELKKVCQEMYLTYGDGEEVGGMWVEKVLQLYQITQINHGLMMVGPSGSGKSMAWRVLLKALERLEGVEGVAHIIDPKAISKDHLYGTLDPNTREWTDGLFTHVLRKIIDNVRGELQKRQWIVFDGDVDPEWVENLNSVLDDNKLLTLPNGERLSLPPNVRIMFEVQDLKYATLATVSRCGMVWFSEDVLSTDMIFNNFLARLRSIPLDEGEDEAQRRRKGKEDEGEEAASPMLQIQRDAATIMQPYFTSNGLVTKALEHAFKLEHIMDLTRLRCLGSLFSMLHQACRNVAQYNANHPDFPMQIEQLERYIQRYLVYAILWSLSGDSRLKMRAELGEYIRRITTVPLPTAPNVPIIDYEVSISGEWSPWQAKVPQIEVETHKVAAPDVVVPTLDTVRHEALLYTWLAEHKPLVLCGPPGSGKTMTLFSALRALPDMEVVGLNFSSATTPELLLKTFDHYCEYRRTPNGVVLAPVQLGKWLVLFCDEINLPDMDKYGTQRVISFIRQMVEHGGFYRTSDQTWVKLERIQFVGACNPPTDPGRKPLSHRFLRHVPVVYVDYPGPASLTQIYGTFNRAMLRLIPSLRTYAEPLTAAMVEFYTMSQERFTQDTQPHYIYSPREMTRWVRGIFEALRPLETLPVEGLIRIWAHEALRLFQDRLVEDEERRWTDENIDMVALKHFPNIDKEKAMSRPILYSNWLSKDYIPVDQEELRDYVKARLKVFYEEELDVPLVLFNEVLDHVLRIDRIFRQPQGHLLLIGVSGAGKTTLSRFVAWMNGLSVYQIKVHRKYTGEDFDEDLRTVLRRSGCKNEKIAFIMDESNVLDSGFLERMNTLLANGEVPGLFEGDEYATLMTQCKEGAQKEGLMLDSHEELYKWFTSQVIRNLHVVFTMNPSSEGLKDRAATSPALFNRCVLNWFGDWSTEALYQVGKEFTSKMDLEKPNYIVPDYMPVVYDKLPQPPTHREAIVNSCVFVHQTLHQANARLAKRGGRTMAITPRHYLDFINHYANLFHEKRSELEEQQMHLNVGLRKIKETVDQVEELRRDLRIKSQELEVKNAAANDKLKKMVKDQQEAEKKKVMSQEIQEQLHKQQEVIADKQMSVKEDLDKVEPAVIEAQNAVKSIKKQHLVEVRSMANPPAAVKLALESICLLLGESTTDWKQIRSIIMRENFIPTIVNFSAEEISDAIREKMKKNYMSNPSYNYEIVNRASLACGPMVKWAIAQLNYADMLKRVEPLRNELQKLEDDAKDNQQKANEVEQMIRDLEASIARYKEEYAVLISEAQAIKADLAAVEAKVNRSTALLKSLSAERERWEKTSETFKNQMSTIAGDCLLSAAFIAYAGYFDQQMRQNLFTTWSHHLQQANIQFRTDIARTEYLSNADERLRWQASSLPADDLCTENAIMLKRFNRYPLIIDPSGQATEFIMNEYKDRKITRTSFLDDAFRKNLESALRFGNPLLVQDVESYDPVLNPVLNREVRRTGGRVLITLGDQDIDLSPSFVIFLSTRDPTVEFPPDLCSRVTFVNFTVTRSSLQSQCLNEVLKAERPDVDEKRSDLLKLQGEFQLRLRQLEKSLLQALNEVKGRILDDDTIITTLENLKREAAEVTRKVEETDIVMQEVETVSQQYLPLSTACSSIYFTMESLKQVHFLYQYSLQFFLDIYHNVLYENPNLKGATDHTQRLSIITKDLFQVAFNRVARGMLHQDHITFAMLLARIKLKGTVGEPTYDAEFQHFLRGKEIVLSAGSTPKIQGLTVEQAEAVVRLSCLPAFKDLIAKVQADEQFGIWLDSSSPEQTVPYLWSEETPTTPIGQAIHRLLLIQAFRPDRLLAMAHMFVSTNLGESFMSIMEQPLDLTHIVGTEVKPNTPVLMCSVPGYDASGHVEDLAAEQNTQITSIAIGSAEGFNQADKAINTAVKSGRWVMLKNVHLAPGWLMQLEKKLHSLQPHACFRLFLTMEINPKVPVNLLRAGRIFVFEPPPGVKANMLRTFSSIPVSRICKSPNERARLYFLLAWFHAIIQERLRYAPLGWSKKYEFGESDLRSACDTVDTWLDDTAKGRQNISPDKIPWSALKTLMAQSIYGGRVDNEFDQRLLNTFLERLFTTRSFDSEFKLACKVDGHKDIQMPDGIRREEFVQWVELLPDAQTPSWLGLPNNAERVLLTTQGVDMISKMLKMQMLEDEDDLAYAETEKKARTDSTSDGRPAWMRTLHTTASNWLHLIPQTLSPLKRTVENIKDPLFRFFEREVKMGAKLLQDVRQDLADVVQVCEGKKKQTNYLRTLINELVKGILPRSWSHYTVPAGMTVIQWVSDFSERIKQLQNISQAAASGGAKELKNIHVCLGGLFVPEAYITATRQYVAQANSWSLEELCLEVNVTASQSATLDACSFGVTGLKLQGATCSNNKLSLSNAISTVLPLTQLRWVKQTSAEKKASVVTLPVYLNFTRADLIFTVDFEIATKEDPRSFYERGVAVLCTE

What was measured:
[1] = target: MnT–Dynlrb1 (flag-tagged miniTurbo fused to the N-terminus of dynein light chain roadblock 1), expressed in DRG neurons (mouse) (UniProt P62627); experiment: proximity ligation; semiendogenous Duolink PLA in fixed cultured DRG neurons transduced with AAV MnT–Dynlrb1 or MnT-control; anti-flag with an antibody to the endogenous partner; cell bodies and axons quantified separately
[2] = target: MnT–Dynlrb1 (flag-tagged miniTurbo fused to the N-terminus of dynein light chain roadblock 1), expressed in DRG neurons (mouse) (UniProt P62627); experiment: as above; remark: listed apart in the source

Row | binding [1] | binding [2] | Molecule
1 | binds |  | dynein heavy chain (Dync1h1) (from UniProt Q9JHU4 1-4644)
2 |  | binds | vacuolar protein sorting–associated protein VTA1 homolog (Vta1) (protein, UniProt Q9CR26 1-309) MAALAPLPPLPAQFKSIQHHLRTAQEHDKRDPVVAYYCRLYAMQTGMKIDSKTPECRKFLSKLMDQLEALKKQLGDNEAVTQEIVGCAHLENYALKMFLYADNEDRAGRFHKNMIKSFYTASLLIDVITVFGELTDENVKHRKYARWKATYIHNCLKNGETPQAGPVGIEEENDVEENEDVGATSLPTQPPQPSSSSAYDPSNLAPGSYSGIQIPPGAHAPANTPAEVPHSTGVTSNAVQPSPQTVPAAPAVDPDLYTASQGDIRLTPEDFARAQKYCKYAGSALQYEDVGTAVQNLQKALRLLTTGRE
